Values of other authors, collected in patent US20030099710A1, “Granule modulating hydrogel system” (priority 1998, published 2003).

Details: background statement, no test described

## COc1ccc2cc([C@H](C)C(=O)O)ccc2c1 [Naproxen]
  minimum therapeutic plasma naproxen concentrations: 30 to 60 µg/mL
